{
  "source": "the supplement of paper PMC8256030",
  "note": "“And” between values parts separate entries of the source, which are not always exact repeats. Equal entries are not always repeated. Some of the results follow. This data set is noisy: repeats of one test often differ as much as different tests do.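 HEK293T cells were given each compound shortly before transfection with a reporter in which red mCherry is followed by the SARS-CoV-2 frameshift element and then GFP in the −1 frame, so GFP appears only after frameshifting.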",
  "data": [
    {"test_system": "HEK293T", "assay": "percent viability (nuclei count) relative to control; higher = more viable cells", "settings": "10 µM; 24 h", "values": [
      {"molecule": "C[C@]12C=CC(=O)C=C1C(Cl)=C[C@@H]1[C@@H]2[C@@H](O)C[C@@]2(C)[C@H]1CC[C@]2(O)C(=O)CO", "note": "[cloprednol]", "percent viability": "241%"},
      {"molecule": "CC[C@]1(O)C[C@H]2CN(CCc3c([nH]c4ccccc34)[C@@](C(=O)OC)(c3cc4c(cc3OC)N(C=O)[C@H]3[C@@](O)(C(=O)OC)[C@H](OC(C)=O)[C@]5(CC)C=CCN6CC[C@]43[C@@H]65)C2)C1", "note": "[Vincristine]", "percent viability": "14%"},
      {"molecule": "O=C(c1ccc2nonc2c1)N1CCCCC1", "note": "[farampator]", "percent viability": "193%"},
      {"molecule": "O=C(O)Cc1nn(Cc2ccc(Br)cc2F)c(=O)c2ccccc12", "note": "[ponalrestat]", "percent viability": "171%"},
      {"molecule": "CC1(C)S[C@@H]2[C@H](/N=C/N3CCCCCC3)C(=O)N2[C@H]1C(=O)O", "note": "[mecillinam]", "percent viability": "123%"},
      {"molecule": "CN1C(=O)CC[C@H]1c1cccnc1", "note": "[cotinine]", "percent viability": "120%"},
      {"molecule": "CCN1CCC[C@H]1CNC(=O)c1c(OC)ccc(Br)c1OC", "note": "[remoxipride]", "percent viability": "370%"},
      {"molecule": "Nc1c(Br)cc(Br)cc1CN[C@H]1CC[C@H](O)CC1", "note": "[ambroxol]", "percent viability": "249% and 150%"},
      {"molecule": "O=S1(=O)CCN(CN2CCS(=O)(=O)NC2)CN1", "note": "[taurolidine]", "percent viability": "85.7%"},
      {"molecule": "CN[C@@H]1[C@H](O[C@H]2[C@H](O[C@H]3[C@H](O)[C@@H](O)[C@H](N=C(N)N)[C@@H](O)[C@@H]3N=C(N)N)O[C@@H](C)[C@]2(O)CO)O[C@@H](CO)[C@H](O)[C@H]1O", "percent viability": "201%"},
      {"molecule": "CCOC(=O)CN[C@@H](C(=O)N1CC[C@H]1C(=O)NCc1ccc(/C(N)=N\\O)cc1)C1CCCCC1", "note": "[ximelagatran]", "percent viability": "255%"},
      {"molecule": "Cc1ncc([N+](=O)[O-])n1C", "note": "[dimetridazole]", "percent viability": "218%"},
      {"molecule": "COc1ccc2c(c1OC)C(=O)O[C@@H]2[C@H]1c2c(cc3c(c2OC)OCO3)CCN1C", "note": "[noscapine]", "percent viability": "156%"},
      {"molecule": "Nc1nc(O)c2ncn(CCC(CO)CO)c2n1", "note": "[penciclovir]", "percent viability": "259%"},
      {"molecule": "CCC1(CC)O[C@@H]2C[C@H]3[C@@H]4CCC5=CC(=O)C=C[C@]5(C)[C@@]4(F)[C@@H](O)C[C@]3(C)[C@]2(C(=O)CO)O1", "note": "[amcinafal]", "percent viability": "152%"},
      {"molecule": "C[N+](C)(C)CCO.[Cl-]", "note": "[choline chloride]", "percent viability": "328%"},
      {"molecule": "Cc1ccccc1OCC(O)CN1CC=CCC1", "note": "(stereo not drawn) [tolpronine]", "percent viability": "131%"},
      {"molecule": "CO[C@@H]1[C@@H](O[C@@H]2O[C@H](C)[C@@H](O[C@H]3C[C@@](C)(O)[C@@H](OC(=O)CC(C)C)[C@H](C)O3)[C@H](N(C)C)[C@H]2O)[C@@H](CC=O)C[C@@H](C)[C@@H](O)/C=C/C=C/C[C@@H](C)OC(=O)C[C@H]1OC(C)=O", "note": "[Josacine]", "percent viability": "149%"},
      {"molecule": "CC(C)(Cc1ccccc1)NCC(O)c1ccc(O)c(NS(C)(=O)=O)c1", "note": "(stereo not drawn) [zinterol]", "percent viability": "130%"},
      {"molecule": "O=C1CN(/N=C/c2ccc([N+](=O)[O-])o2)C(=O)N1", "note": "[nitrofurantoin]", "percent viability": "137% and 323%"},
      {"molecule": "CC1(C)S[C@@H]2[C@H](NC(=O)[C@H](N)c3ccc(O)cc3)C(=O)N2[C@H]1C(=O)O", "percent viability": "218%"},
      {"molecule": "CCc1cn([C@H]2C[C@H](O)[C@@H](CO)O2)c(=O)[nH]c1=O", "percent viability": "67.4%"},
      {"molecule": "Oc1ncnc2[nH]ncc12", "note": "[allopurinol]", "percent viability": "221%"},
      {"molecule": "O=c1oc2ccccc2c(O)c1Cc1c(O)c2ccccc2oc1=O", "percent viability": "169%"},
      {"molecule": "CCN1CCN(c2cc3c(cc2F)c(=O)c(C(=O)O)cn3C2CC2)CC1", "note": "[enrofloxacin]", "percent viability": "144% and 152%"},
      {"molecule": "COC(=O)C1=C(C#N)NC(C)=C(C(=O)OC(C)C)C1c1cccc([N+](=O)[O-])c1", "note": "(stereo not drawn) [nilvadipine]", "percent viability": "257%"},
      {"molecule": "Cl/C(=C\\n1cncn1)c1ccc(Cl)cc1Cl", "note": "[loreclezole]", "percent viability": "172%"},
      {"molecule": "CN1CC(=O)N2[C@H](c3ccc4c(c3)OCO4)c3[nH]c4ccccc4c3C[C@@H]2C1=O", "note": "[tadalafil]", "percent viability": "60.2%"},
      {"molecule": "CN(Cc1ccccc1)Cc1ccccc1", "note": "[dibemethine]", "percent viability": "205%"},
      {"molecule": "N=C(N)NS(=O)(=O)c1ccc(N)cc1", "note": "[sulfaguanidine]", "percent viability": "16%"},
      {"molecule": "COc1cc(C(C)=O)ccc1OCCCN1CCC(c2noc3cc(F)ccc23)CC1", "note": "[iloperidone]", "percent viability": "270%"},
      {"molecule": "CC(C)C[C@H](NC(=O)CNC(=O)[C@H](Cc1ccc(O)cc1)NC(=O)[C@H](CO)NC(=O)[C@H](Cc1c[nH]c2ccccc12)NC(=O)[C@H](Cc1cnc[nH]1)NC(=O)[C@@H]1CCC(=O)N1)C(=O)N[C@@H](CCCNC(=N)N)C(=O)N1CCC[C@H]1C(=O)NCC(N)=O", "note": "[gonadorelin]", "percent viability": "333%"},
      {"molecule": "CC(C)(C)CC(C)(C)c1ccc(OCCO)cc1", "note": "[octoxinol]", "percent viability": "161%"}
    ]}
  ]
}
